# Results as given in PMC8843743, “Targeting a proteolytic neoepitope on CUB domain containing protein 1 (CDCP1) for RAS-driven cancers” (The Journal of Clinical Investigation, 2022).
# These are yes or no findings as the source states them, for the method shown. Some entries that bind do so weakly or less than the wild type.
# Assays:
# [1] = target: T1, CTF (residues 370-836) of c-CDCP1 on HEK293T c-CDCP1 cells (human) (UniProt Q9H5V8); experiment: flow cytometry on cells; HEK293T c-CDCP1 cells (CTF and NTF made as 2 polypeptides from one T2A vector); the NTF on the cells detected with IgG 4A06
# T1 sequence: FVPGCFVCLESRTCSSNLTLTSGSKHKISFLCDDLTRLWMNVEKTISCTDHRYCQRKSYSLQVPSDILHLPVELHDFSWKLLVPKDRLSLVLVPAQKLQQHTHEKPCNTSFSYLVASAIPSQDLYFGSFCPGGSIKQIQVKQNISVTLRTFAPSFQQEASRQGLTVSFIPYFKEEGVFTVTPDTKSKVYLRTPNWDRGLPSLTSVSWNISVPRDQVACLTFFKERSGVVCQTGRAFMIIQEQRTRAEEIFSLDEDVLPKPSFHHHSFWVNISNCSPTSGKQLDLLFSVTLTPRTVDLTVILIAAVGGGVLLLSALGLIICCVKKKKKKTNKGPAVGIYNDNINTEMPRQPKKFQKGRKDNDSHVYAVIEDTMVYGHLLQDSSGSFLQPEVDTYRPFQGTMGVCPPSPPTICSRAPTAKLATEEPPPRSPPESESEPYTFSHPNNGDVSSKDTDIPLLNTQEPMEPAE
# [2] = target: T2, CTF ectodomain of recombinant c-CDCP1 cut 1 (human) (UniProt Q9H5V8); experiment: co-purification after co-expression; NTF and CTF ectodomain on separate plasmids cotransfected in BirA-Expi293; protein A or Ni-NTA affinity chromatography; SDS-PAGE
# T2 sequence: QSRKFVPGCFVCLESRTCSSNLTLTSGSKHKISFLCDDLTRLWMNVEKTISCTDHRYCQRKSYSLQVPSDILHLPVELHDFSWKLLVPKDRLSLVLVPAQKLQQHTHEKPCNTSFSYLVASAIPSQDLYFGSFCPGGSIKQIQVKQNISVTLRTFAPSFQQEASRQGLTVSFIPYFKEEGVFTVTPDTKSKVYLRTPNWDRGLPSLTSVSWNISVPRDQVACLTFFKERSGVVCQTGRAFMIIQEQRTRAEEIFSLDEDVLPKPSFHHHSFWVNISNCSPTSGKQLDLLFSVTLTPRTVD
# [3] = target: T3, CTF ectodomain of recombinant c-CDCP1 cut 2 (human) (UniProt Q9H5V8); experiment: as above
# T3 sequence: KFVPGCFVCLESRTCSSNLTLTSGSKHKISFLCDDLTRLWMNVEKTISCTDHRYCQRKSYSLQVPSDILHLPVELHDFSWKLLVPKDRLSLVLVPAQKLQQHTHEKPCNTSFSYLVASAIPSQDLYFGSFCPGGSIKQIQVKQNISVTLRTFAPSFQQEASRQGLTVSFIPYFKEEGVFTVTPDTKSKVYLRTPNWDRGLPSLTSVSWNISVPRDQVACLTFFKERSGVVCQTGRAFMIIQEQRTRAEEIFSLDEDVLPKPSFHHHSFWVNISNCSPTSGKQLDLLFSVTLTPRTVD
binder,measurement,setting,value
"NTF (residues 30-369) of c-CDCP1 on HEK293T c-CDCP1 cells (domain or fragment, UniProt Q9H5V8 30-369) FEIALPRESNITVLIKLGTPTLLAKPCYIVISKRHITMLSIKSGERIVFTFSCQSPENHFVIEIQKNIDCMSGPCPFGEVQLQPSTSLLPTLNRTFIWDVKAHKSIGLELQFSIPRLRQIGPGESCPDGVTHSISGRIDATVVRIGTFCSNGTVSRIKMQEGVKMALHLPWFHPRNVSGFSIANRSSIKRLCIIESVFEGEGSATLMSANYPEGFPEDELMTWQFVVPAHLRASVSFLNFNLSNCERKEERVEYYIPGSTTNPEVFKLEDKQPGNMAGNFNLSLQGCDQDAQSPGILRLQFQVLVQHPQNESNKIYVVDLSNERAMSLTIEPRPVKQSRK",binding,[1],binds
"NTF of recombinant c-CDCP1 cut 1 (domain or fragment, UniProt Q9H5V8 30-365) FEIALPRESNITVLIKLGTPTLLAKPCYIVISKRHITMLSIKSGERIVFTFSCQSPENHFVIEIQKNIDCMSGPCPFGEVQLQPSTSLLPTLNRTFIWDVKAHKSIGLELQFSIPRLRQIGPGESCPDGVTHSISGRIDATVVRIGTFCSNGTVSRIKMQEGVKMALHLPWFHPRNVSGFSIANRSSIKRLCIIESVFEGEGSATLMSANYPEGFPEDELMTWQFVVPAHLRASVSFLNFNLSNCERKEERVEYYIPGSTTNPEVFKLEDKQPGNMAGNFNLSLQGCDQDAQSPGILRLQFQVLVQHPQNESNKIYVVDLSNERAMSLTIEPRPVK",binding,[2],binds
"NTF of recombinant c-CDCP1 cut 2 (domain or fragment, UniProt Q9H5V8 30-368) FEIALPRESNITVLIKLGTPTLLAKPCYIVISKRHITMLSIKSGERIVFTFSCQSPENHFVIEIQKNIDCMSGPCPFGEVQLQPSTSLLPTLNRTFIWDVKAHKSIGLELQFSIPRLRQIGPGESCPDGVTHSISGRIDATVVRIGTFCSNGTVSRIKMQEGVKMALHLPWFHPRNVSGFSIANRSSIKRLCIIESVFEGEGSATLMSANYPEGFPEDELMTWQFVVPAHLRASVSFLNFNLSNCERKEERVEYYIPGSTTNPEVFKLEDKQPGNMAGNFNLSLQGCDQDAQSPGILRLQFQVLVQHPQNESNKIYVVDLSNERAMSLTIEPRPVKQSR",binding,[3],binds
